# According to the supplement of paper PMC10338343:
# ± gives the standard deviation. Only a part is listed here, and it is no random draw. Many of these values have a large error. This is one part of the list.
# Legend:
# [1] = tested on: MILI (PIWIL2) piRISC loaded with L1MC piRNA (26 nt); assay: pre-steady-state target cleavage rate (min^-1); higher = faster piRNA-guided slicing of the target; details: guide: L1MC piRNA 5'p-UAACUAAAUACUAUGCAAGCUGUAGG; auxiliary factor: none (no GTSF1)
# Method in brief: (§1)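 With or without 500 nM GTSF1 partner protein, 1 nM active affinity-purified piRISC carrying one synthetic guide was mixed with 0.1 nM transcribed, DNA-blocked target RNA library in HEPES–potassium acetate buffer at 33 °C for 0–8 or 0–960 min. Uncleaved targets were sequenced and normalised to depth and to weakly complementary targets, three trials were pooled, and k3 was capped at 0.0001 min^-1. The pre-steady-state cleavage rate came from a burst-and-steady-state fit.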
# [2] = tested on: MIWI (PIWIL1) piRISC loaded with L1MC piRNA (30 nt); assay: as above; details: guide: L1MC piRNA 5'p-UAACUAAAUACUAUGCAAGCUGUAGGUCCU
# Method in brief: as §1
# [3] = tested on: EfPiwi piRISC loaded with L1MC piRNA (26 nt); assay: pre-steady-state target cleavage rate (min^-1); guide: L1MC piRNA 5'p-UAACUAAAUACUAUGCAAGCUGUAGG; MIWI and MILI are mouse PIWI proteins and EfPiwi is from a freshwater sponge; tags in brackets are library labels; higher = faster piRNA-guided slicing of the target
# Method in brief: as §1
# [4] = auxiliary factor: none (no GTSF1)
# [5] = auxiliary factor: 500 nM Ephydatia muelleri Gtsf1
# [6] = auxiliary factor: none (no Gtsf1)
# [7] = auxiliary factor: 500 nM mouse GTSF1
Sequence,pre-steady-state target cleavage rate [1],"pre-steady-state target cleavage rate [2, 4]","pre-steady-state target cleavage rate [3, 5]","pre-steady-state target cleavage rate [3, 6]","pre-steady-state target cleavage rate [2, 7]"
UCCUGGAUGUCGAUGCAUAGUAUAAAGUUA,0.00215 ± 0.0031,0.000713 ± 0.0089,0.000224 ± 0.013,–,–
UCCUGGAUGUCGAAGCAUAGUAUUUACUUA,0.000515 ± 0.01,0.00066 ± 0.011,0.000238 ± 0.012,–,–
UCCUGCUACAGCUUGGAUAGUAUUUAGAAA,0.000931 ± 0.0069,0.00274 ± 0.0041,0.00242 ± 0.0021,–,–
UCCUGGAACAGCUUGCAUAGAUAUUACAAA,0.000933 ± 0.0057,0.000797 ± 0.01,0.000356 ± 0.011,–,–
UCCUCCUACAGCUUGCAUUCAUAAAUCAAA [g13:g26:cont:t1A],0.000105 ± 0.029,0.000222 ± 0.013,0.00126 ± 0.0055,–,–
UCCUGCUACAGCUUGCUAAGUAUUUAGAAA,0.000913 ± 0.0077,0.000381 ± 0.0083,0.00164 ± 0.0034,–,–
UCCUGGAUCAGCUUGCAAUGUAUUUACAAA,0.0016 ± 0.0039,0.00205 ± 0.0037,0.000304 ± 0.012,–,–
UCCUGGAUGUCGAAGCAUAGUAUUUAGAUUA,0.000177 ± 0.018,0.000153 ± 0.021,0.000755 ± 0.0065,–,–
UCCUGGAUCAGCUUGCAUAGUAUAAAGAAA,0.00137 ± 0.0039,0.00193 ± 0.0035,0.00121 ± 0.0029,–,–
UCCUGGAUCAGCUUGCUAUAGUAUUUAGUUA,0.000525 ± 0.012,0.0013 ± 0.0035,0.00528 ± 0.0019,–,–
UCCUGGAUGUCGUUGCAUAGUAUUUAUUUA,0.00216 ± 0.0043,0.00195 ± 0.0043,0.000481 ± 0.0079,–,–
UCCUGGAUGUCGUUCGUUAGUAUUUAGUUA,0.000416 ± 0.012,0.000535 ± 0.012,0.00032 ± 0.01,–,–
UCCUGCUACAGCUUGCAUUCAAUUUAGAAA,0.000168 ± 0.021,0.000212 ± 0.02,0.000422 ± 0.0067,–,–
UCCUGGUACAGCUUGCAUAGUAUUAUGUAA,0.000549 ± 0.012,0.00203 ± 0.0046,0.00101 ± 0.006,–,–
UCCUGGAUGUCCUUGCAUAGUAUAAUGUUA,0.00195 ± 0.0035,0.00229 ± 0.0036,0.00142 ± 0.0054,–,–
UCCUGGAACUCCUUGCAUAGUAUUUACAAA,0.000932 ± 0.0054,0.00141 ± 0.0045,0.00184 ± 0.0028,–,–
UCCUGGAACUCGUUGCAUAGUAUUUAGAAA,0.00198 ± 0.0027,0.00157 ± 0.0041,0.00502 ± 0.004,–,–
UCCUGGAACAGCUUGCAAUCUAUUUUCAAA,0.000141 ± 0.016,0.000439 ± 0.012,0.00018 ± 0.026,–,–
UCCUGGAUGUCGAUGCAAAGUAUUAAGUUA,0.000591 ± 0.011,0.000476 ± 0.015,–,0.000301 ± 0.024,–
UCCUGGAUGUCGAAGCAUAGUAUUUAUUA,0.000121 ± 0.053,0.000581 ± 0.012,0.000288 ± 0.012,–,–
UCCUGGAUGUCGAUGCAUAGAAUUUAGUUA,0.00172 ± 0.0033,–,0.000324 ± 0.0087,–,0.000545 ± 0.014
UCCUGGAACAGCUUGCAUUCUAUUUAGUAA,0.000812 ± 0.0083,0.00208 ± 0.003,0.000439 ± 0.0073,–,–
UCCUGCUACAGCUUGCUAUCAUAAAUCAAA [g15:g25:cont:t1A],0.00014 ± 0.025,0.000686 ± 0.012,–,0.000185 ± 0.024,–
UCCUGCUACAGCUUGCAUAGUAAAUUCAAA,0.000968 ± 0.0061,0.000708 ± 0.0089,0.00184 ± 0.0023,–,–
UCCUGGAUGUCGAACGUAUCUAUUUAUGUUA,–,–,–,–,0.000253 ± 0.033
UCCUGGAUGUCCUUGCAUAGUUUUUUGUUA,0.000884 ± 0.0079,0.00155 ± 0.0046,0.000342 ± 0.0086,–,–
UCCUGGAUGUCCUUGCAUUCAAUUUAGUUA,0.00142 ± 0.0049,0.000603 ± 0.0092,0.000526 ± 0.0074,–,–
UCCUGGAUGUCCUAGCAUUGUAUUUAGUUA,0.0016 ± 0.0034,0.000862 ± 0.0074,0.00231 ± 0.0053,–,–

# Reformatted: entries from further up.
Sequence	pre-steady-state target cleavage rate [1]	pre-steady-state target cleavage rate [2, 4]	pre-steady-state target cleavage rate [3, 5]	pre-steady-state target cleavage rate [3, 6]	pre-steady-state target cleavage rate [2, 7]
UCCUGGAUGUCGAUGCAAAGUAUUAAGUUA	0.000591 ± 0.011	0.000476 ± 0.015	–	0.000301 ± 0.024	–
UCCUGGAUGUCGAAGCAUAGUAUUUAUUA	0.000121 ± 0.053	0.000581 ± 0.012	0.000288 ± 0.012	–	–
